Patent US10383869B2, “Treatment with opioid antagonists and mTOR inhibitors” (THE UNIVERSITY OF CHICAGO, priority 2008, dated 2019)
At least one compound was matched to its structure with a doubt left.

Tested on: Akt
Assay: VEGF-induced Akt activation (phosphorylation) immunoblot in human pulmonary microvascular endothelial cells
Format: cell-based
Settings: human EC, VEGF 100 nM 5 minutes; LY294002 10 μM 1 hour, or siRNA

O=c1cc(N2CCOCC2)oc2c(-c3ccccc3)cccc12 [LY294002]
VEGF-induced Akt threonine 308 phosphorylation: inhibits
